Consider 24 molecules from article PMC10163288.

The other results are listed elsewhere or left out.

Sequences and labels used below:
B1: il2ra_site2_2erj_normal_mot_HHH_b1_03609_af2_000000077_0001_42_55_H_._HHH_b1_06056_af2_0002_0000200003_0000001_0 (protein)
chain: SSSSSEEVEELLEEARELSKRNPEEAEKVLRRASELAFRANNFELWALVAELLRAIAELEGSSSS
B2: il2ra_site1_3nfp_normal_mot_eb5a5eebac1e5153f932cc6c3f4b2787_0001_af2_000000065_0001_18_33_H_._31bff7180b20e3ed47766ceefd9934be_0001_af2_0001_0000100001_0000001 … (protein)
chain: DEEEELAELIRQAVEKNDPELLERVAQELLEKLGDPKEASRLFEELLEKAGLSPRERQLALELSV
B3: il2ra_site1_3nfp_normal_mot_ems_3hM_3354_af2_000000165_0001_44_63_H_._HEEHE_1486_af2_0001_0000100002_0000001_0 (protein)
chain: DLEEAVEEAAKKLAEVVGVPSWEVEVENGTVHVELEGTDHQAKAAAKIIEFAAKAFGVPVEVEVR
B4: il2ra_site1_2b5i_normal_mot_HHH_b1_01495_af2_000000272_0001_42_56_H_._HHH_b2_08205_af2_0001_0000300011_0000001_1_af2pred_dldesign_0_af2pred (protein)
chain: SSSSSSSLFDETERLFNEASKIKDKEERKKVLEKALEVAKKANDEVAVADIEYFLSRVKSSSSSS
B5: il2ra_site2_2erj_normal_mot_HHH_b2_02303_000000050_0001_43_56_H_._HHH_b2_07721_af2_0001_0000100009_0000001_0 (protein)
chain: SSSSNELLRELYELLRELAQLVYEGDEERAKELIEEIEELAKELNITVAEEVLRTLQRHLNSSSS
B6: il2ra_site1_1z92_sap_17_mot_30aa582283ecb64a35315be28fff3e94_0001_000000110_0001_35_49_H_._210159fdb1b1f1ad465d550914d6d852_0001_0001_0000300032_0000001_0_0001 (protein)
chain: SSSSSSEEEAVEYHKRLLESALRLGNEELLKMLLRAAEMLAERLNDEELRELVEEIEEKYSSSSS
B7: il2ra_site1_3nfp_normal_mot_HHH_b1_03753_af2_000000088_0001_41_54_H_._894fcaf535bbcaf6280540f02ced91cd_0001_0001_0000300013_0000001_0_af2pred_0001_af2pred_1_swa … (protein)
chain: SLEEEVERLLREAGAPPHAIKIIKQLLEAVKRGNPSARRLLEINIRAARNLGNEAAVEALELALK
B8: il2ra_site2_2erj_sap_26_mot_HHH_b1_01129_af2_000000281_0001_18_33_H_._HHH_b1_00424_0001_0000100001_0000001_0_0001 (protein)
chain: SSSSSNDAERVNRLIREVIELFREGNPEEAERLLRELEEFLRELGDEELLEAVELLLKMLSSSSS
B9: il2ra_site1_1z92_sap_14_mot_HHH_b1_03619_000000222_0001_22_39_H_._HHH_b2_04685_af2_0001_0000300015_0000001_0_0001 (protein)
chain: SSSSSVHESAELALRVAKRAAERGDPEKAQEWAEFALRQLEMLGDPLAEEVRELEEEIERLSSSS
B10: il2ra_site1_2b5i_normal_mot_HHH_b1_06258_af2_000000112_0001_42_56_H_._HHH_b2_04697_af2_0001_0000300042_0000001_0_af2pred_0001_af2pred (protein)
chain: SSSSDEEFERIYELYLEASRLFRQGNHEEARELLEEAIQLAKEGNDEKLLKQLEHMLKALGSSSS
B11: il2ra_site2_2erj_sap_14_mot_HHH_b2_01204_af2_000000056_0001_19_34_H_._HHH_b2_03878_0001_0000200011_0000001_0_0001 (protein)
chain: SSSSDWLHELYELASEITRLLAEGDPEEARRLLEELEELAEENDSPNAEEIVERLEKKIESSSSS
B12: il2ra_site2_2erj_normal_mot_HHH_b1_02713_af2_000000038_0001_1_19_H_._HHH_b2_05421_0001_0000700029_0000001_1 (protein)
chain: SSSSSEEKEAIRHALLRAELLIEEGNEEEARQVLESALRYAKQLGDEEVLEEIEKLLKELSSSSS
B13: il2ra_site2_3nfp_normal_mot_HHH_b1_00660_af2_000000090_0001_40_57_H_._HHH_b1_05518_af2_0001_0000100003_0000001_0_1_af2pred_0001_af2pred (protein)
chain: SSSSDEEEAEKILEQAERVLENGNPEEARELLEEAAHLAVQNGDFELLTKILRLLEEVERRSSSS
B14: il2ra_site1_2b5i_normal_mot_f5ff40796168375b462bec8614a1db4a_0001_1_000000138_0001_53_65_H_._ems_3hM_2054_af2_0001_0000100009_0000001_0_af2pred_dldesign_0_af2pr … (protein)
chain: SDEEVEDIRERATAATRAALAANDPLLARKLVLLVRRWARKHNNPELEEVVRELEKMIADYLESS
B15: il2ra_site1_1z92_normal_mot_HHH_b1_05862_af2_000000270_0001_22_38_H_._HHH_b1_00437_0001_0000100007_0000001_0 (protein)
chain: SSSSDRAEKWAFELAELLIRALERAGDPKAREQVEFLIEDLELLGNPELAEELRELLEEVDSSSS
B16: il2ra_site2_3nfp_normal_mot_HHH_b2_05281_000000198_0001_39_56_H_._HHH_b1_08465_0001_0000600035_0000001_0 (protein)
chain: SSSSDLEERVRELLERAEELLEKGNPEEARKFIAEAVELVYENRNAELFFLVAEVAFKLAQSSSS
B17: il2ra_site1_2b5i_normal_mot_HHH_b1_03123_000000199_0001_1_18_H_._HHH_b2_06006_0001_0000500022_0000001_0_af2pred_dldesign_0_af2pred (protein)
chain: SSSSSDAYDRIYDLYKEALRLKREGKKEEAKKVLEEAIALATAAGDTKAVAELQRLLELLSSSSS
B18: il2ra_site2_2erj_normal_mot_6d5f7cbc25fed124e3eb7f952334b9cf_0001_af2_000000048_0001_1_13_H_._HHH_b1_00754_af2_0001_0000300008_0000001_0 (protein)
chain: SSSSSDAVEFARKVFEEAHELFKQGNREEVERLLEEAIEELERLGDPAAALALEAALKFISSSSS
B19: il2ra_site2_3nfp_sap_38_mot_HHH_b2_07052_af2_000000028_0001_19_35_H_._HHH_b2_02165_0001_0000100012_0000001_0_0001 (protein)
chain: SSSSDAEEYVRAALALLRRALKEGDEEAFERLAEIVRLAIESNNDEELERELEKIKEEFENSSSS
B20: il2ra_site1_3nfp_normal_mot_HHH_b1_06312_000000199_0001_1_18_H_._HHH_b2_07370_af2_0001_0000200023_0000001_1_af2pred_0001_af2pred (protein)
chain: SSSDRTEEVLERFRRVFELARNGNEEEAEELLEELIRLLEEQGNEAAVKFARAALEVLRSQSSSS
B21: il2ra_site1_2b5i_normal_mot_ems_3hM_3687_af2_000000248_0001_45_64_H_._HHH_b2_02169_af2_0001_0000200006_0000001_0_af2pred_dldesign_0_af2pred (protein)
chain: SSSSSDVEKKVQELIERAEKEKDLRKALEILQEAYDLADEAGREELADYVEELAKKRLLGSSSSS
B22: il2ra_site2_2erj_sap_10_mot_HHH_b1_05650_000000005_0001_42_56_H_._HHH_b1_02138_0001_0000100006_0000001_0_0001_af2pred_0001_1_af2pred_swapped (protein)
chain: SSSSSVEERLEELKEKAKELEERGNPEEARKVLREALLIAAQNNNEELAEELSHLLSKLHSSSSS
B23: il2ra_site1_3nfp_normal_mot_HHH_b1_05868_000000088_0001_43_57_H_._HHH_b1_05429_0001_0000100013_0000001_0_af2pred_0001_af2pred_1_swapped (protein)
chain: SSSSDRRSRELIEAARMLAEELNDPETLERLEQLREEYEEEGDERLLREVFKLLRELLERASSSS
B24: il2ra_site1_2b5i_sap_7_mot_HHH_b1_05947_000000126_0001_42_56_H_._HHH_b1_05810_af2_0001_0000100008_0000001_1_0001_af2pred_0001_af2pred (protein)
chain: SSSSSEEEQRAFELYHEASRAFSNGDKERARELLEEAIELAEEAGDPKIKRELEQFLEMLSSSSS

This test deals with il2ra, P01589. Kind of test: yeast display titration.
On to B1, for which the apparent Kd (usually a dissociation constant that holds for the conditions of the assay) was “inactive: no binding seen”.
In the case of B2 it was “inactive: no binding seen”; in that of B3, “inactive: no binding seen”.
For the molecule B4, the “apparent Kd” value was “inactive: no binding seen”.
In the case of B5 it was “inactive: no binding seen”.
B6: the “apparent Kd” value is “inactive: no binding seen”.
On to B7, for which the “apparent Kd” value is “inactive: no binding seen”.
The entry for B8 is “inactive: no binding seen”; for B9 it is “inactive: no binding seen”.
In the case of B10 it was “inactive: no binding seen”; in that of B11, “inactive: no binding seen”.
On to B12, for which the “apparent Kd” value was “inactive: no binding seen”.
As to B13, the “apparent Kd” value was “inactive: no binding seen”.
The entry for B14 is “inactive: no binding seen”; for B15 it is “inactive: no binding seen”.
The entry for B16 is “inactive: no binding seen”; for B17 it is “inactive: no binding seen”.
For B18, the “apparent Kd” value was “inactive: no binding seen”.
As for B19, the “apparent Kd” value is “inactive: no binding seen”.
The entry for B20 is “inactive: no binding seen”.
As to B21, the “apparent Kd” value is “inactive: no binding seen”.
Regarding B22, the “apparent Kd” value is “inactive: no binding seen”.
B23: the apparent Kd was inactive: > 912 nM.
As to B24, the “apparent Kd” value is “inactive: no binding seen”.
